Source: US4136163A, “P-Menthane carboxamides having a physiological cooling effect” (Wilkinson Sword Limited, priority 1971, dated 1979)

Test: Taste, flavour or odour of product containing the compound
Assay type: in vivo, human
Details: Example 12, toothpick, 0.01 mg, tongue

## CCNC(=O)C1CC(C)CCC1C(C)C (stereo not shown) [H, --C2 H5, N-ethyl-p-menthane-3-carboxamide]
  taste: no detectable taste
